Data source: PubChem BioAssay AID652259 (Drosophila RNAi Screening Center, 2013)

- Assay: 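Knock-downs that push a Wingless-driven reporter up or down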 (primary screen)
- System: Drosophila clone 8 imaginal disc epithelial cells
- Reagents: long dsRNA against Drosophila genes
- Challenge: pathway stimulated by co-transfected Wingless expression plasmid
- Detection: 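Dual luciferase reads per well after Wingless plasmid stimulation: reporter firefly light and Renilla control light; activity is firefly divided by Renilla, a ratio not deposited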
- Reading the numbers: firefly reporter light: higher = more Wg reporter light, before normalisation; Renilla control light: higher = more transfected or surviving cells
- Active means: 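Strong candidates differ from their plate mean by at least two out of four per-plate statistical tests; weak candidates meet just one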
- Meaning of the calls: active = candidate regulator (raises or lowers reporter); inactive = not a candidate
The screen tested about 22,000 reagents; this is a random part of those with a known target gene and a result. Over the whole deposit, 233 (1.1%) were called active. 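Light values are raw, unnormalised plate reads; the ratio scores behind the reporter calls were not deposited.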 Reagents against one gene are numbered here. Names joined by + are all predicted targets of the reagent. The record does not give: the amount of reagent, the time to read-out, the dose of the treatment.

Gene	reagent no.	reporter change call, replicate 1	firefly reporter light, replicate 1	firefly reporter light, replicate 2	Renilla control light, replicate 1	Renilla control light, replicate 2	call
out (outsiders)	1		2456	6912	940	2450	inactive
CG7213	1		2320	8785	1511	3584	inactive
Or22a (Odorant receptor 22a)	1		6161	10422	987	2276	inactive
Uqcc1 + CG9948	1		2181	7749	1178	3491	inactive
CG13970	1		2884	4272	529	1729	inactive
CG12984	1		10858		4881		inactive
Cyp6a19 (Cytochrome P450 6a19)	1		12776		4001		inactive
CG6693	1		9159		2916		inactive
Trim9 (Tripartite motif containing 9)	1		1725	7049	457	2880	inactive
lectin-37Db	1		3266	6722	960	2481	inactive
Ir75b (Ionotropic receptor 75b)	1		7008		2786		inactive
SmD3 (Small ribonucleoprotein particle protein SmD3)	1		11031		1668		inactive
CG10116	1		4578		1228		inactive
Usp14 (Ubiquitin specific protease 14)	1		10499		4102		inactive
st (scarlet)	1		4168		1250		inactive
Cep164 (centrosomal protein 164)	1		19224		10049		inactive
dnc (dunce)	1		18235		7296		inactive
dnc (dunce)	2		18028		9931		inactive
dnc (dunce)	3		15293		11079		inactive
dnc (dunce)	4		26650		18322		inactive
dnc (dunce)	5		20739		16900		inactive
Ugt35B1 (UDP-glycosyltransferase family 35 member B1)	1		8827		2736		inactive
CG4553	1		24617		17883		inactive
pim (pimples)	1		5476		1024		inactive
dgt4 (dim gamma-tubulin 4)	1		13810		5821		inactive
ver (verrocchio)	1		8528		3196		inactive
CG31910 + snoRNA:Me28S-G2743 (retired record)	1		14464		7365		inactive
asRNA:CR43469 + Balat	1		7105		2784		inactive
AP-1gamma (Adaptor Protein complex 1, gamma subunit)	1		15239		10907		inactive
CG14711 + Zaf1	1		19648		4695		inactive
Ars2 (Arsenic resistance protein 2)	1		16960		5239		inactive
CG32228	1		4.30e5	3.81e5	1.77e5	1.59e5	inactive
CG32700	1		19968		9053		inactive
CG32700	2		12884		6448		inactive
Lrch (Leucine-rich-repeats and calponin homology domain protein)	1		14186		5372		inactive
Ucp4C (Uncoupling protein 4C)	1		4506	5756	1222	2648	inactive
kuz (kuzbanian)	1		5457	5666	1008	2017	inactive
CG42583	1		7.46e5	7.72e5	3.77e5	2.24e5	inactive
SKIP (Shal K[+] channel interacting protein)	1	Wg reporter activity raised	29936		4784		inactive
SKIP (Shal K[+] channel interacting protein)	2		37973		5050		inactive
SKIP (Shal K[+] channel interacting protein)	3		32752		4771		inactive
SKIP (Shal K[+] channel interacting protein)	4		6618	7719	2123	2755	inactive
SKIP (Shal K[+] channel interacting protein)	5		36184		4432		inactive
CG8366	1		8323		2786		inactive
Mlf (Myelodysplasia/myeloid leukemia factor)	1		2433		1410		inactive
CG34005	1		17979		7481		inactive
CG14607	1		17443		4672		inactive
Mnt	1		2769	9313	844	1386	inactive
Mnt	2		19168		10841		inactive
CG5623	1		21208		6640		inactive
CG8419	1		2684	5421	1526	3777	inactive
hgo (homogentisate 1,2-dioxygenase)	1		2914	6599	1254	2493	inactive
CG42697	1		18957		12376		inactive
Nup54 (Nucleoporin 54kD)	1		11645		2445		inactive
RYa-R (RYamide receptor)	1		2535	8165	1073	2006	inactive
CG5863	1		13013		2309		inactive
Setx (Senataxin)	1		2049	9703	1031	2721	inactive
FASN3 (Fatty acid synthase 3)	1		19441		9360		inactive
CG11123	1		4123	14179	816	1312	inactive
CG43187	1		26253		12888		inactive
CG8478	1		17604		4337		inactive
Isha (Insulator su(Hw) mRNA adaptor)	1		10971		2761		inactive
CG16781	1		13393		12536		inactive
CG6125	1		10777		3142		inactive
CG14154	1		5809		2264		inactive
CG9289	1		1723	7178	699	2781	inactive
CG6656	1		2866	9826	1056	3011	inactive
mib2 (mind bomb 2)	1		5037		1027		inactive
MBD-like (Methyl-CpG binding domain protein-like)	1		7213		2877		inactive
Rnp4F (RNA-binding protein 4F)	1		2603	7232	812	1912	inactive
Elo68beta (Elongase 68beta)	1		9573		3888		inactive
GluRIIA (Glutamate receptor IIA)	1		2421	6976	923	2837	inactive
CG5347	1		28154		11716		inactive
AOX1 (Aldehyde oxidase 1)	1		6634		2081		inactive
Aplip1 (APPL-interacting protein 1)	1		5057		2039		inactive
Aplip1 (APPL-interacting protein 1)	2		6355		2966		inactive
Aplip1 (APPL-interacting protein 1)	3		5.09e5	6.42e5	2.64e5	2.09e5	inactive
Mlp84B (Muscle LIM protein at 84B)	1		11539		3200		inactive
betaNACtes1 (Nascent-associated complex beta-subunit-like, testis 1)	1		26690		10965		inactive
CR9337 (pseudo)	1		9148		3053		inactive
Hs6st (Heparan sulfate 6-O-sulfotransferase)	1		17562		4546		inactive
Hs6st (Heparan sulfate 6-O-sulfotransferase)	2		27330		6749		inactive
Hs6st (Heparan sulfate 6-O-sulfotransferase)	3		28777		6642		inactive
Hs6st (Heparan sulfate 6-O-sulfotransferase)	4		7.53e5	7.29e5	4.34e5	2.91e5	inactive
Btk (Bruton tyrosine kinase)	1		2428	6450	909	2739	inactive
Btk (Bruton tyrosine kinase)	2		18941		10529		inactive
Btk (Bruton tyrosine kinase)	3		6.01e5	6.25e5	2.45e5	1.86e5	inactive
asRNA:CR30267 + CG42260	1		15440		8567		inactive
Obp56g (Odorant-binding protein 56g)	1		4572		1809		inactive
Drep3 (DNA fragmentation factor-related protein 3)	1		11674		3884		inactive
Drep3 (DNA fragmentation factor-related protein 3)	2		4614		1205		inactive
Drep3 (DNA fragmentation factor-related protein 3)	3		5.93e5	5.72e5	2.22e5	2.23e5	inactive
Gpdh2 (Glycerol-3-phosphate dehydrogenase 2)	1		4364	9747	1042	3200	inactive

Copied from the list:
For “call”, CG8478 is entered as inactive
Result for Or22a (Odorant receptor 22a) under “Renilla control light, replicate 2”: 2276
Under “firefly reporter light, replicate 2”, CG9289 is entered as 7178
Result of Aplip1 (APPL-interacting protein 1) #3 in “firefly reporter light, replicate 2”: 6.42e5
CG42697, firefly reporter light, replicate 1 = 18957
Entry of Gpdh2 (Glycerol-3-phosphate dehydrogenase 2) under “call”: inactive
